The assay deals with P388 leukemia ip, CD2F1 mice, survival T/C. In words: NCI In Vivo Anticancer Drug Screen. Data for tumor model P388 Leukemia (intraperitoneal) in CD2F1 (CDF1) mice. The following applies: T/C endpoint: median survival time, higher T/C = longer survival.
[1] abbreviates: dose: 100.0 mg/kg/injection, schedule: Q01DX005 (ip), vehicle: saline.
Where [2] appears, read: dose: 200.0 mg/kg/injection, schedule: Q01DX005 (ip), vehicle: saline.
[3] abbreviates: dose: 12.5 mg/kg/injection, schedule: Q01DX005 (ip), vehicle: Klucel (hydroxypropylcellulose) (HPC).
Setting [4] is: dose: 100.0 mg/kg/injection, schedule: Q01DX005 (ip), vehicle: Klucel (hydroxypropylcellulose) (HPC).
The mark [5] stands for this setting: dose: 100.0 mg/kg/injection, schedule: Q01DX009 (ip), vehicle: saline with Tween-80.
Where [6] appears, read: dose: 200.0 mg/kg/injection, schedule: Q01DX005 (ip), vehicle: Klucel (hydroxypropylcellulose) (HPC).
The mark [7] stands for this setting: dose: 100.0 mg/kg/injection, schedule: Q01DX009 (ip), vehicle: saline.
Setting [8] is: dose: 200.0 mg/kg/injection, schedule: Q01DX009 (ip), vehicle: saline.
Setting [9] is: dose: 400.0 mg/kg/injection, schedule: Q04DX002 (ip), vehicle: saline with Tween-80.
The mark [10] stands for this setting: dose: 200.0 mg/kg/injection, schedule: Q01DX009 (ip), vehicle: saline with Tween-80.

The list is a part of this screen's results and no random one: it gathers tests that were run many times, whatever their T/C, doses with no T/C, and many T/C values between a quarter and a half above the control. Further doses and runs are listed elsewhere. T/C: endpoint of the treated group in % of that of the vehicle group. Some entries give survivors of the animals treated and no T/C: the source holds a T/C of zero for them, seemingly a mark for toxic or unscored doses. Some survivor counts are full or nearly so, which does not show that the dose was tolerated: survival well below the control is almost never listed, so the zero probably covers shortened survival too. Survivors were counted at the toxicity check, usually on the fifth day, unless a day is given; later deaths do not show. Schedules are NCI's codes, taken here to give the interval after Q, in days (D) or hours (H), and the number of doses after X. Some entries hold several experiments; the results are listed from low to high. For survival time, this PubChem deposit counts one and a half times the control or more as active, and values a quarter to a half above the control carry no call in these data; other NCI protocols may use other cut-offs. Some T/C values carry the count of animals alive at the toxicity check (mostly the fifth day); without a count, all were alive then.

In the case of `CCN(CC)CCn1c(C)nc2c1C(=O)c1nc(C)n(CCN(CC)CC)c1C2=O`, the survivor count was 6 of 6 (dose: 25.0 mg/kg/injection, schedule: Q01DX005 (ip), vehicle: saline); 4 of 6 (dose: 50.0 mg/kg/injection, schedule: Q01DX005 (ip), vehicle: saline); 0 of 6 under setting [1]; 0 of 6 under setting [2].

Turning to `CC1S(=O)(=O)OCCOS1(=O)=O`, the T/C by setting is: (dose: 6.25 mg/kg/injection, schedule: Q01DX005 (ip), vehicle: Klucel (hydroxypropylcellulose) (HPC)) 128 % of control; under setting [3], 147 % of control. Also, the survivor count under setting [4] was 0 of 6 and 3 of 6.

On to `CNC(=O)OCc1c(COC(=O)NC)c2n(c1C)CSC2`, for which the T/C reads like this: (dose: 25.0 mg/kg/injection, schedule: Q01DX005 (ip), vehicle: saline with Tween-80) 126 and 128 % of control; (dose: 50.0 mg/kg/injection, schedule: Q01DX005 (ip), vehicle: saline with Tween-80) 131 and 132 % of control. For the same compound, the survivor count (dose: 100.0 mg/kg/injection, schedule: Q01DX005 (ip), vehicle: saline with Tween-80) was 5 of 6 and 6 of 6; the survivor count (dose: 200.0 mg/kg/injection, schedule: Q01DX005 (ip), vehicle: saline with Tween-80) is 6 of 6.

Consider `CC(C)Cc1cn(O)c2nc(=N)nc(N)c-2n1`, for which, under setting [5], the survivor count is listed as 1 of 6.

As to `O=C1c2ccccc2CC1CS(=O)(=O)CC1Cc2ccccc2C1=O` (stereo unspecified), the survivor count reads like this: (dose: 100.0 mg/kg/injection, schedule: Q04DX002 (ip), vehicle: saline) 6 of 6; (dose: 200.0 mg/kg/injection, schedule: Q04DX002 (ip), vehicle: saline) 6 of 6.

Turning to `CCOC(=O)/C=C/C(=O)NNS(=O)(=O)CCC(N)C(=O)O` (stereo unspecified), the survivor count (dose: 200.0 mg/kg/injection, schedule: Q01DX009 (ip), vehicle: water) is reported as 0 of 6.

As for `CCCCN=Cc1ccccc1O.CCCCN=Cc1ccccc1O.[Cu]`, the survivor count under setting [4] was 3 of 6 and the survivor count under setting [6] was 0 of 6.

For the compound `COc1ccc(C(=O)C(CN(C)C)CN(C)C)c(OC)c1`, the survivor count reads like this: (dose: 30.0 mg/kg/injection, schedule: Q01DX005 (ip), vehicle: saline) 0 of 6; (dose: 60.0 mg/kg/injection, schedule: Q01DX005 (ip), vehicle: saline) 0 of 6; (dose: 120.0 mg/kg/injection, schedule: Q01DX005 (ip), vehicle: saline) 0 of 6; (dose: 240.0 mg/kg/injection, schedule: Q01DX005 (ip), vehicle: saline) 0 of 6.

Regarding `Cc1cc2ncn(CC(=O)O)c2cc1C`, the survivor count (dose: 200.0 mg/kg/injection, schedule: Q04DX003 (ip), vehicle: saline with Tween-80) was 3 of 6.

In the case of `ClCCCN1CCN(CCCCl)CC1`, the T/C (dose: 50.0 mg/kg/injection, schedule: Q01DX009 (ip), vehicle: distilled water + alcohol) is 132 and 142 % of control. The survivor count (dose: 200.0 mg/kg/injection, schedule: Q01DX009 (ip), vehicle: distilled water + alcohol) is given as 1 of 6.

As to `CS(=O)(=O)OCC(O)C(O)COS(C)(=O)=O` (stereo unspecified), the survivor count runs as follows: under setting [7], 10 of 10; under setting [8], 10 of 10. The T/C (dose: 800.0 mg/kg/injection, schedule: Q01DX009 (ip), vehicle: saline) was 145 % of control.

In the case of `CC(C)(CS)C(=O)O`, the survivor count by setting is: under setting [7], 1 of 6; under setting [8], 0 of 6.

For `COc1ccc(C(C#N)C(=O)CCC(=O)C(C#N)c2ccc(OC)c(OC)c2)cc1OC` (stereo unspecified), under setting [9], the survivor count is on record as 2 of 6.

As for `c1ccc2c(c1)C1CC3N=NC1C23` (stereo unspecified), under setting [6], the survivor count is given as 3 of 5.

In the case of `COc1ccc(CN2CCC[S+]2C)cc1` (stereo unspecified), the survivor count reads like this: under setting [1], 0 of 5; under setting [2], 0 of 5.

Turning to `CCN1N=Nc2ccccc2C1O` (stereo unspecified), the survivor count is listed as 5 of 6 (dose: 100.0 mg/kg/injection, schedule: Q04DX002 (ip), vehicle: saline with Tween-80); 0 of 6 (dose: 200.0 mg/kg/injection, schedule: Q04DX002 (ip), vehicle: saline with Tween-80); 0 of 6 under setting [9].

`COc1cc2c(cc1OC)[C@@H](CO)[C@H]1c3cc4c(cc3CCN1C2)OCO4`: the T/C (dose: 400.0 mg/kg/injection, schedule: Q04DX003 (ip), vehicle: distilled water + Tween-80) was 126 and 129 % of control.

`CCN(CC)CCOc1ccc(/C=C(\C)C(C)=O)cc1`: the survivor count under setting [2] was 0 of 5.

Consider `O=C1CC2(CCCCC2)C(=O)N1c1cc([N+](=O)[O-])ccn1`, for which the survivor count is, setting by setting: (dose: 100.0 mg/kg/injection, schedule: Q01DX009 (ip), vehicle: Klucel (hydroxypropylcellulose) (HPC)) 0 of 6; (dose: 200.0 mg/kg/injection, schedule: Q01DX009 (ip), vehicle: Klucel (hydroxypropylcellulose) (HPC)) 0 of 6.

`CC(=O)OC1CC2CCC1(C)C2(C)C` (stereo unspecified): the survivor count under setting [10] was 2 of 6.

With `Nc1ncnc2[nH]c(=S)[nH]c12`, the survivor count reads like this: under setting [3], 4 of 5; (dose: 25.0 mg/kg/injection, schedule: Q01DX005 (ip), vehicle: Klucel (hydroxypropylcellulose) (HPC)) 0 of 5; (dose: 50.0 mg/kg/injection, schedule: Q01DX005 (ip), vehicle: Klucel (hydroxypropylcellulose) (HPC)) 0 of 5; under setting [4], 0 of 5; under setting [6], 0 of 5.

Consider `N=C(N)COc1ccccc1`, for which the survivor count runs as follows: under setting [1], 3 of 5; under setting [2], 1 of 5.

Turning to `COc1ccc(OC)c(Cc2cnc3nc(N)nc(N)c3c2C)c1`, the T/C is 147 % of control [5 of 6 alive] (dose: 20.0 mg/kg/injection, schedule: Q01DX005 (ip), vehicle: dextrose); 125 % of control (dose: 20.0 mg/kg/injection, schedule: Q01DX005 (ip), vehicle: water); 125 % of control (dose: 40.0 mg/kg/injection, schedule: Q01DX005 (ip), vehicle: water); 142 % of control (dose: 50.0 mg/kg/injection, schedule: Q04DX003 (ip), vehicle: dextrose). The survivor count is recorded as 6 of 6 (dose: 80.0 mg/kg/injection, schedule: Q01DX005 (ip), vehicle: dextrose); 4 of 6 (dose: 80.0 mg/kg/injection, schedule: Q01DX005 (ip), vehicle: water); 1 of 6 (dose: 160.0 mg/kg/injection, schedule: Q01DX005 (ip), vehicle: dextrose); 2 of 6 (dose: 160.0 mg/kg/injection, schedule: Q01DX005 (ip), vehicle: water); 6 of 6 (dose: 200.0 mg/kg/injection, schedule: Q04DX003 (ip), vehicle: dextrose); 0 of 6 (dose: 400.0 mg/kg/injection, schedule: Q04DX003 (ip), vehicle: dextrose).

In the case of `Cc1cn(O)cc(C)c1=N`, the survivor count is, setting by setting: (dose: 50.0 mg/kg/injection, schedule: Q01DX009 (ip), vehicle: saline with Tween-80) 6 of 6; under setting [5], 4 of 6; under setting [10], 0 of 6.

With `Cc1ccc(S(=O)(=O)N(CCCc2c(-c3ccccc3)nc(N)[nH]c2=O)c2ccccc2)cc1`, the survivor count (dose: 30.0 mg/kg/injection, schedule: Q01DX005 (ip), vehicle: saline with Tween-80) was 6 of 6; the survivor count (dose: 120.0 mg/kg/injection, schedule: Q01DX005 (ip), vehicle: saline with Tween-80) is 6 of 6; the survivor count (dose: 240.0 mg/kg/injection, schedule: Q01DX005 (ip), vehicle: saline with Tween-80) is reported as 6 of 6.

In the case of `Cc1n(-c2ccccc2)nn[n+]1C`, the survivor count (dose: 25.0 mg/kg/injection, schedule: Q01DX009 (ip), vehicle: Klucel (hydroxypropylcellulose) (HPC)) is 6 of 6.

`C=C[CH2][Sn]([CH3])([CH3])[CH2]C=C`: under setting [2], the survivor count is reported as 0 of 6.

For the origin of these results see PubChem BioAssay AID330 (DTP/NCI, 2004).
